Source: paper PMC11705485
These are yes or no findings as the source states them, for the method shown. In cells and extracts the contact can be indirect. Here binding means that the protein was enriched with, or labelled near, the bait; the list need not be complete.

By UniProt entry, the sequences of proteins in these tests, tags left out.
UniProt Q99MQ3: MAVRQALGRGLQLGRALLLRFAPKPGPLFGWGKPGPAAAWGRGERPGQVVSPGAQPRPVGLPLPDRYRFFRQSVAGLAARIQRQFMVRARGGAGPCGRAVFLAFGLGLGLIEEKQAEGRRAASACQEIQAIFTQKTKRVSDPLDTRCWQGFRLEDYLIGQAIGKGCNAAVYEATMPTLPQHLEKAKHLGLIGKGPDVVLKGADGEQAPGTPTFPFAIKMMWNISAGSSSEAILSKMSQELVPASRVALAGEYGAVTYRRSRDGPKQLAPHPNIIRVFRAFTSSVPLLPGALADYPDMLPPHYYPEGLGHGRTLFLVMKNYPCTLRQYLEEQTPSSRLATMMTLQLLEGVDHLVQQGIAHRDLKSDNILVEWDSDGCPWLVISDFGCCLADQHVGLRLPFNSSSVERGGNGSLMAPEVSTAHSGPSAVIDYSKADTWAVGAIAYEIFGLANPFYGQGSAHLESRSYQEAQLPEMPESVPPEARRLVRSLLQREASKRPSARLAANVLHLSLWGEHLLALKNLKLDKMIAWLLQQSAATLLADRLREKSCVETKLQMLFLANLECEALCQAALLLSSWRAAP

Target: PTEN‐induced kinase 1 (PINK1), endogenous in mouse heart tissue (mouse (endogenous in heart tissue)) (UniProt Q99MQ3)
Test: affinity purification with mass spectrometry; mouse heart tissue immunoprecipitated with an anti-PINK1 antibody; obtained proteins analysed by mass spectrometry

binding: binds
B1: peroxiredoxin‐2 (Prdx2), endogenous in mouse heart tissue (protein, UniProt Q61171 1-198)
chain: MASGNAQIGKSAPDFTATAVVDGAFKEIKLSDYRGKYVVLFFYPLDFTFVCPTEIIAFSDHAEDFRKLGCEVLGVSVDSQFTHLAWINTPRKEGGLGPLNIPLLADVTKSLSQNYGVLKNDEGIAYRGLFIIDAKGVLRQITVNDLPVGRSVDEALRLVQAFQYTDEHGEVCPAGWKPGSDTIKPNVDDSKEYFSKHN
